Measurements reported in PubChem BioAssay AID1259308 (NCATS, 2017)

- Aim: 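Candidate targets for better recombinant protein yield in mammalian cells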 (primary screen)
- Cell system: human HEK293 embryonic kidney cells stably expressing firefly luciferase (HEK-CMV-Luc2-Hygro)
- Reagents: single siRNA against human genes, 0.8 pmol siRNA per well
- Duration: 72 h
- Measured: 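Luciferase light (ONE-Glo) measured on one replicate plate set and viability (CellTiter-Glo) on the other, scaled to a negative control siRNA, with robust z-scores and luciferase per cell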
- Reading the numbers: total luciferase, z-score and total luciferase, % of control: higher = more reporter protein produced; luciferase per cell, z-score: higher = more reporter output per viable cell; viable cells, % of control: higher = more viable cells
- Active means: 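An siRNA counts as active if its total luciferase robust z-score exceeds 3; genes with two or more such siRNAs out of three were retested with fresh siRNAs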
- Meaning of the calls: active = raised luciferase; inactive = no rise
In all, the deposit lists about 59,000 reagents; this is a random part of them. About 1,510 of them (2.6%) were called active. 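Calls use total luciferase alone and ignore viability, so some active siRNAs may act by altering cell number.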

no.	Gene	PubChem SID	total luciferase, z-score	total luciferase, % of control	luciferase per cell, z-score	viable cells, % of control	activity call
1	TTC39A	SID160734735	-0.736	67.2	-0.424	84	inactive
2	TTC39A	SID160734746	0.0901	83.7	0.944	72.9	inactive
3	TTC39A	SID160734755	0.438	90.6	0.988	78	inactive
4	WNT10B	SID160718855	-1.1	60	-0.14	69.6	inactive
5	WNT10B	SID160718857	0.218	86.2	0.179	91.9	inactive
6	WNT10B	SID160718858	0.213	86.1	0.122	93.2	inactive
7	ANKRD37	SID160765182	-0.268	76.6	-0.413	95.4	inactive
8	ANKRD37	SID160765183	0.623	94.3	0.79	85.6	inactive
9	ANKRD37	SID160765184	0.686	95.5	-0.084	109	inactive
10	TICRR	SID160753676	-0.405	73.8	0.34	75.4	inactive
11	TICRR	SID160753677	-0.258	76.8	-0.361	94.3	inactive
12	TICRR	SID160753678	-1.81	45.8	-1.77	81.5	inactive
13	GPX2	SID160773902	-0.278	76.4	-0.371	94.1	inactive
14	GPX2	SID160773910	-0.465	72.6	-0.493	92.4	inactive
15	GPX2	SID160773917	-0.433	73.3	-0.61	96.1	inactive
16	TYR	SID160718491	-0.0265	81.4	-0.432	102	inactive
17	TYR	SID160718492	-0.847	65	-0.0709	74.1	inactive
18	TYR	SID160731863	-2.05	41.2	-2.32	84.6	inactive
19	COL16A1	SID160746539	4.28	167	3.14	81.7	active
20	COL16A1	SID160746550	-1.92	43.8	-1.17	66.5	inactive
21	COL16A1	SID160746560	-1.03	61.4	-1.3	96.6	inactive
22	AJUBA	SID160732052	-0.206	77.8	-1.3	122	inactive
23	AJUBA	SID160753051	0.759	97	0.425	96.9	inactive
24	AJUBA	SID160753052	0.853	98.8	0.37	100	inactive
25	PHF20L1	SID160740068	1.43	110	1.35	86.5	inactive
26	PHF20L1	SID160740069	0.883	99.4	1.46	75.7	inactive
27	PHF20L1	SID160740070	0.604	93.9	0.123	102	inactive
28	TP53AIP1	SID160733740	-2.29	36.4	-2.64	81.5	inactive
29	TP53AIP1	SID160747347	0.635	94.5	0.587	90.5	inactive
30	TP53AIP1	SID160747348	0.812	98	0.662	92	inactive
31	STAT5A	SID160717440	-1.04	61.1	-1.13	91.9	inactive
32	STAT5A	SID160717441	-1.93	43.6	-2.28	88.8	inactive
33	STAT5A	SID160717442	1.25	107	0.0304	118	inactive
34	EHBP1L1	SID160762149	-0.458	72.8	-0.624	95.8	inactive
35	EHBP1L1	SID160762150	3.88	159	2.74	86.3	active
36	EHBP1L1	SID160762151	0.642	94.7	0.824	85.2	inactive
37	AGRN	SID160765484	-0.402	73.9	0.154	79.3	inactive
38	AGRN	SID160765485	-1.98	42.5	-1.17	64.7	inactive
39	AGRN	SID160765486	-1.23	57.4	-0.182	67.3	inactive
40	SCARF1	SID160720386	0.247	86.8	-0.143	101	inactive
41	SCARF1	SID160720387	2.74	136	0.946	119	inactive
42	SCARF1	SID160720388	-1.25	57.1	-1.53	95.5	inactive
43	PTPRG	SID160715400	-0.344	75	-0.705	101	inactive
44	PTPRG	SID160715402	0.679	95.4	0.506	93.3	inactive
45	PTPRG	SID160715403	-0.104	79.8	-0.762	109	inactive
46	HLCS	SID160775034	-1.27	56.6	-1.38	91.1	inactive
47	HLCS	SID160775035	-1.79	46.3	0.12	50.2	inactive
48	HLCS	SID160775036	0.497	91.8	1.03	78.2	inactive
49	CPA3	SID160747268	-1.03	61.4	-1.53	103	inactive
50	CPA3	SID160747279	-0.941	63.2	-0.889	89.2	inactive
51	CPA3	SID160747290	-0.649	69	-0.973	99.6	inactive
52	HOXD4	SID160775253	-1.51	51.8	-0.0709	59	inactive
53	HOXD4	SID160775254	1.8	118	0.776	107	inactive
54	HOXD4	SID160775256	0.221	86.3	-0.163	101	inactive
55	SCRT2	SID160753374	-0.14	79.1	-0.173	92.5	inactive
56	SCRT2	SID160753375	2.35	129	1.61	94.1	inactive
57	SCRT2	SID160753377	1.69	116	1.17	94.9	inactive
58	LAP3	SID160739930	0.0706	83.3	-0.16	97.1	inactive
59	LAP3	SID160739931	-1.58	50.4	-1.38	80.9	inactive
60	LAP3	SID160739932	0.575	93.3	-0.201	110	inactive
61	WSCD2	SID160722767	-0.123	79.4	-0.666	106	inactive
62	WSCD2	SID160722768	-0.434	73.2	-0.571	95.1	inactive
63	WSCD2	SID160722769	0.101	83.9	0.0216	93.2	inactive
64	NDUFA9	SID160777856	0.187	85.6	-0.169	100	inactive
65	NDUFA9	SID160777857	1.01	102	0.823	91.7	inactive
66	NDUFA9	SID160777858	1.35	109	1.12	90.5	inactive
67	NGLY1	SID160744311	-1.57	50.6	-2.17	100	inactive
68	NGLY1	SID160744312	-1.99	42.3	-2.12	82.7	inactive
69	NGLY1	SID160744313	0.183	85.5	0.187	91	inactive
70	BAIAP2	SID160728467	1.59	113	0.919	99.5	inactive
71	BAIAP2	SID160728468	-1.53	51.5	-1.25	79.9	inactive
72	BAIAP2	SID160728469	1.54	112	2.72	61.5	inactive
73	ORMDL2	SID160739053	-0.617	69.6	-1.44	114	inactive
74	ORMDL2	SID160739054	-0.575	70.5	-0.975	102	inactive
75	ORMDL2	SID160739055	0.0819	83.5	-0.833	116	inactive

11 neighbouring records from above:
no.	Gene	PubChem SID	total luciferase, z-score	total luciferase, % of control	luciferase per cell, z-score	viable cells, % of control	activity call
8	ANKRD37	SID160765183	0.623	94.3	0.79	85.6	inactive
9	ANKRD37	SID160765184	0.686	95.5	-0.084	109	inactive
10	TICRR	SID160753676	-0.405	73.8	0.34	75.4	inactive
11	TICRR	SID160753677	-0.258	76.8	-0.361	94.3	inactive
12	TICRR	SID160753678	-1.81	45.8	-1.77	81.5	inactive
13	GPX2	SID160773902	-0.278	76.4	-0.371	94.1	inactive
14	GPX2	SID160773910	-0.465	72.6	-0.493	92.4	inactive
15	GPX2	SID160773917	-0.433	73.3	-0.61	96.1	inactive
16	TYR	SID160718491	-0.0265	81.4	-0.432	102	inactive
17	TYR	SID160718492	-0.847	65	-0.0709	74.1	inactive
18	TYR	SID160731863	-2.05	41.2	-2.32	84.6	inactive
